Some of the results follow. Most values lie at the level of the controls, where differences are scatter.
Each target was assayed with CN[C@@H]1C[C@H]2O[C@@](C)([C@@H]1OC)n1c3ccccc3c3c4c(c5c6ccccc6n2c5c31)C(=O)NC4 [staurosporine] (assay: log2 fold change of tryptic peptide abundance, ligand vs vehicle (limited proteolysis) (log2 ratio); higher = more trypsin-susceptible (destabilized)). Details: ligand concentration: 20 uM; sample: K562 cleared lysate; digestion: 4 min, 22 C (HT-PELSA RT4min, Orbitrap Astral).

Amino acid sequences for entries named in this document (tags omitted). A change or cut given only in a name is not applied to a line headed by its entry.
UniProt Q6PH81: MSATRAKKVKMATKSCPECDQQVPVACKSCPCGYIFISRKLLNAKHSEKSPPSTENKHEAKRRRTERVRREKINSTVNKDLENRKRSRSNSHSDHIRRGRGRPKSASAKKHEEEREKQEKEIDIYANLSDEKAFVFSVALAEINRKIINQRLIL
UniProt Q6PFW1: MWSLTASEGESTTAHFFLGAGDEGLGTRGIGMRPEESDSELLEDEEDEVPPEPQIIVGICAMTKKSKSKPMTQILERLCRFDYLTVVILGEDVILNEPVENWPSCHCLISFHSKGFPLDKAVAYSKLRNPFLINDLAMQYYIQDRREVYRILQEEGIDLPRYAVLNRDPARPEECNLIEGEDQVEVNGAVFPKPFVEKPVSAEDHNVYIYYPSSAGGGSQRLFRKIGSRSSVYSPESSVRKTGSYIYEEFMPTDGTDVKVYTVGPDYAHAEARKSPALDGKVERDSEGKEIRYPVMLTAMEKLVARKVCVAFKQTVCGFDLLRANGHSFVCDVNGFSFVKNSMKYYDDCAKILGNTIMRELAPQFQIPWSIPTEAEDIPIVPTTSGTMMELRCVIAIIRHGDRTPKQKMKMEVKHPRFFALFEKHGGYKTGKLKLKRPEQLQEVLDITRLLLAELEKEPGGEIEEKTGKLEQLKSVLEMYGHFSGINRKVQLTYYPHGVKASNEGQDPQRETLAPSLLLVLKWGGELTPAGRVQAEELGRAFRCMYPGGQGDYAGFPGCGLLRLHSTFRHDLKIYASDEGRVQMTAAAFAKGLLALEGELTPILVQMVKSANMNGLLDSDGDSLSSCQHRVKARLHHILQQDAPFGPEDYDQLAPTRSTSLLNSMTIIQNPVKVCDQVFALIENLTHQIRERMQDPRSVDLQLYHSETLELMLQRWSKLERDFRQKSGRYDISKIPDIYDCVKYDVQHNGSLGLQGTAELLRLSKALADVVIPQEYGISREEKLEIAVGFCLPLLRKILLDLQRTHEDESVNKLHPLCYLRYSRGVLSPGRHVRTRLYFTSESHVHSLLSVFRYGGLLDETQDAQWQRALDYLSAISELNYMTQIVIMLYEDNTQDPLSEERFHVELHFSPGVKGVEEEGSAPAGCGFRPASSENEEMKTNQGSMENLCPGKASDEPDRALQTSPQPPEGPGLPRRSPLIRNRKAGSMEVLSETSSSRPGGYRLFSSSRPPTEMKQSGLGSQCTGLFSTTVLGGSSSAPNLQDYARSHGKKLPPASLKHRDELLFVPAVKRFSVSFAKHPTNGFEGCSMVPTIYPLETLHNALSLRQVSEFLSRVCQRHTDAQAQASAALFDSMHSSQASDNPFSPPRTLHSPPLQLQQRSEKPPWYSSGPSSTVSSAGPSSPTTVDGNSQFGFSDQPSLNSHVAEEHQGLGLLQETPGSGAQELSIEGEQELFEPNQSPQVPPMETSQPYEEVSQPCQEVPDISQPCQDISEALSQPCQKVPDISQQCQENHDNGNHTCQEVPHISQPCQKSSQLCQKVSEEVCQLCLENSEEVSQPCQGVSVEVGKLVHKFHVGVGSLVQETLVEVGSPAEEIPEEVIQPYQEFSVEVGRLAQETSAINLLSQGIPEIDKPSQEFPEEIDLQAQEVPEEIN
UniProt Q6ICL3: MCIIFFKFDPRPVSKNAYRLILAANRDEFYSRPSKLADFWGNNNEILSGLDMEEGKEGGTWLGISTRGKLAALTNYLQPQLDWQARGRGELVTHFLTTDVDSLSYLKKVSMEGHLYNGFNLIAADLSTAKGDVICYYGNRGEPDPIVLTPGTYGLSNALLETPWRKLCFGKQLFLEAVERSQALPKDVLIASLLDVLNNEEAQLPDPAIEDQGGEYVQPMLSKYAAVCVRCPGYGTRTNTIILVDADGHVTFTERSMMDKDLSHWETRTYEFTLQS
UniProt Q6UWP2: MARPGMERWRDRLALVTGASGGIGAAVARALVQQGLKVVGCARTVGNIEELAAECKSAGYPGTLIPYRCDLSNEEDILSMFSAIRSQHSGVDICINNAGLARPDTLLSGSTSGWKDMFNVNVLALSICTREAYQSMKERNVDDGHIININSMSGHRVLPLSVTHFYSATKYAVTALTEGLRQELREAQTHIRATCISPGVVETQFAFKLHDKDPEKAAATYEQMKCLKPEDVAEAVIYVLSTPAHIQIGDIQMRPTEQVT
UniProt Q69YL0: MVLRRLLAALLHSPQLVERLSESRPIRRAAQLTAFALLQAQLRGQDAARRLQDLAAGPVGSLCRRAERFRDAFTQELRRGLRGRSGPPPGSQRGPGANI
UniProt Q6EMB2: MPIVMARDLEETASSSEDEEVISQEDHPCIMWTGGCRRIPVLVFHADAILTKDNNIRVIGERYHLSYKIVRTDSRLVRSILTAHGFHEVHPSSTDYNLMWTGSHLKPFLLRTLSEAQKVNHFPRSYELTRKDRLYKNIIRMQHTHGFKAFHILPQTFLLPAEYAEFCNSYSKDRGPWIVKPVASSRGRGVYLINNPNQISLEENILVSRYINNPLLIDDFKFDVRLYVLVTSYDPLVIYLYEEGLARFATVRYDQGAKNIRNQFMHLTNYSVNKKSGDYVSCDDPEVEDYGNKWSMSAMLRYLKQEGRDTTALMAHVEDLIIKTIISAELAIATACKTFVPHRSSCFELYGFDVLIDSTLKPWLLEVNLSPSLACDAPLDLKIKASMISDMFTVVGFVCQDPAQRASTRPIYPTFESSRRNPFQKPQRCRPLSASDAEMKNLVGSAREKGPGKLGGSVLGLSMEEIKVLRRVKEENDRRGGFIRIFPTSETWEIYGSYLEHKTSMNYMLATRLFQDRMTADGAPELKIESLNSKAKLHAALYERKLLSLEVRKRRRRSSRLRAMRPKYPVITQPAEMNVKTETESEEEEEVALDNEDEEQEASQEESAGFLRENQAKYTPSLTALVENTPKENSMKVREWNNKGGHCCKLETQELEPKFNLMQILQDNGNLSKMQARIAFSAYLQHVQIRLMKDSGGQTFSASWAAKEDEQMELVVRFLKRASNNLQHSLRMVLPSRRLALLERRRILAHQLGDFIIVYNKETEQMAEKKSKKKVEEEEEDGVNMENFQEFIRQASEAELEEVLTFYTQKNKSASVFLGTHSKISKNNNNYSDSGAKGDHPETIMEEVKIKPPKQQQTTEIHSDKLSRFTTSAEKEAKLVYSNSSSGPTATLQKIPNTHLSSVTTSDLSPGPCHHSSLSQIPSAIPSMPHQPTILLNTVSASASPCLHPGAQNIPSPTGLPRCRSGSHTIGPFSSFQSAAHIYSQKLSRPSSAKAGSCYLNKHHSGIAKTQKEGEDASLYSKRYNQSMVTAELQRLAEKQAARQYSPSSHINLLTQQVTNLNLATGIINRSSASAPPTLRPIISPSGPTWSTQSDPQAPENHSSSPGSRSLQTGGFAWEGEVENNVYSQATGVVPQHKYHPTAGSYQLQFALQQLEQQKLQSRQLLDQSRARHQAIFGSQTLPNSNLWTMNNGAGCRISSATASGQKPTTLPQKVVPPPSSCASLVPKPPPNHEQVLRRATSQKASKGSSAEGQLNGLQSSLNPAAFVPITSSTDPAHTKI
UniProt Q6IBS0: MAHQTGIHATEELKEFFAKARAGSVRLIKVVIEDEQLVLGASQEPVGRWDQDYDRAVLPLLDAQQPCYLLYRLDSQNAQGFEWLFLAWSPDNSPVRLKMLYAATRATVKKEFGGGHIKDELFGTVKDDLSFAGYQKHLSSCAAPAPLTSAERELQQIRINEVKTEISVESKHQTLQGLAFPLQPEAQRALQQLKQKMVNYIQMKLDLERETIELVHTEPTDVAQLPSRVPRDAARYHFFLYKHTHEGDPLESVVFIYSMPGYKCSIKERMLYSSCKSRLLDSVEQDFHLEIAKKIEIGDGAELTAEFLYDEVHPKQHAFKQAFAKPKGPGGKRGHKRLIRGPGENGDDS
UniProt Q6IPR3: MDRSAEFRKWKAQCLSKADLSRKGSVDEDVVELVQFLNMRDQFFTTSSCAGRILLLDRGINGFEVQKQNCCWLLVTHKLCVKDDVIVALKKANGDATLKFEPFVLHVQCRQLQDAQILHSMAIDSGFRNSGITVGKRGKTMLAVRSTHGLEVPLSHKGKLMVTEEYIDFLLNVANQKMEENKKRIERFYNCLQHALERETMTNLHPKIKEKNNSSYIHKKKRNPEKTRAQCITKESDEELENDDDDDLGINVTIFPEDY
UniProt Q6IN84: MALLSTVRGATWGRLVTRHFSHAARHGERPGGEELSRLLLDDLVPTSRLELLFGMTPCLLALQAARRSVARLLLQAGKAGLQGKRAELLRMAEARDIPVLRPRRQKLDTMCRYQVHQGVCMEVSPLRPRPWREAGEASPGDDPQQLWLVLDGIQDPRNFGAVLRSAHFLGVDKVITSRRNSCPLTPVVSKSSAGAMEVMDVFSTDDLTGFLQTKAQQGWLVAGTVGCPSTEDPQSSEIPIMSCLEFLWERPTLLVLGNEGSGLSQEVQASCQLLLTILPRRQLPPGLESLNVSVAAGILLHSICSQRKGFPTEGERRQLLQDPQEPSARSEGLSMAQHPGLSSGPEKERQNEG
UniProt Q68DK7: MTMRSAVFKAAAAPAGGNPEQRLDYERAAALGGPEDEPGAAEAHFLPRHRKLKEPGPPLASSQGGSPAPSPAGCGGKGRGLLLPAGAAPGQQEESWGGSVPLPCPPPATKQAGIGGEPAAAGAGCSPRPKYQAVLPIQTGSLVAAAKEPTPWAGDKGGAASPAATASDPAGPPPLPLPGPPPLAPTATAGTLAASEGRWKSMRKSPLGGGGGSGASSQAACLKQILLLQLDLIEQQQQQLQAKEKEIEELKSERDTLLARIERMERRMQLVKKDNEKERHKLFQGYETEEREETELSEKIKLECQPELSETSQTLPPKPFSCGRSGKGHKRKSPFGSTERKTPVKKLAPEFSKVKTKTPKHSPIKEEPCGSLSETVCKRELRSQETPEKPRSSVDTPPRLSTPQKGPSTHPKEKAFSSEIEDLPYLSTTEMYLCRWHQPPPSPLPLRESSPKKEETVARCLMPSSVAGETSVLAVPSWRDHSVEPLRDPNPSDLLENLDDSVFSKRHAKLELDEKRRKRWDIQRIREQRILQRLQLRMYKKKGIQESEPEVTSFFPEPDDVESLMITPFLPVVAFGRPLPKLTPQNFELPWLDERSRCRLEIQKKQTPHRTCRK
UniProt Q6PK81: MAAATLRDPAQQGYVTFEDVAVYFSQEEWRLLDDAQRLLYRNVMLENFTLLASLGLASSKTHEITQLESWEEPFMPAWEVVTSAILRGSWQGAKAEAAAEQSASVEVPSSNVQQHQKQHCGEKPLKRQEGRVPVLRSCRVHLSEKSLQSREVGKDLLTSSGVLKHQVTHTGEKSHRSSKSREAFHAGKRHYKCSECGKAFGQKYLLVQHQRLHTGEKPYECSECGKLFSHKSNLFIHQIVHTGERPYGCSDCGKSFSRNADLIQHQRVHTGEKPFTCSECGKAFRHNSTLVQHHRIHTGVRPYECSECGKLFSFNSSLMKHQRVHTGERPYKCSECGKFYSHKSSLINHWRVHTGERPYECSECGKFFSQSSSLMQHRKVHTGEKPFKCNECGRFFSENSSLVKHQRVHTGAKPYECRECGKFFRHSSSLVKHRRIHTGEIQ
UniProt Q6PF06: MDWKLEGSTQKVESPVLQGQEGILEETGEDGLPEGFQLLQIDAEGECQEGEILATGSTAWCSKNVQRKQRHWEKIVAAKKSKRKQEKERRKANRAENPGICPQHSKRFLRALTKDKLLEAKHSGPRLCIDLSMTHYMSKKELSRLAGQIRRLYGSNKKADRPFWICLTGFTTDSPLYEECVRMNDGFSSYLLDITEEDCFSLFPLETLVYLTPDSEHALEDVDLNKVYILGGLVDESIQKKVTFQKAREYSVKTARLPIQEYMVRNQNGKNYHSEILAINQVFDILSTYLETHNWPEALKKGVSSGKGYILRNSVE
UniProt Q6NSI8: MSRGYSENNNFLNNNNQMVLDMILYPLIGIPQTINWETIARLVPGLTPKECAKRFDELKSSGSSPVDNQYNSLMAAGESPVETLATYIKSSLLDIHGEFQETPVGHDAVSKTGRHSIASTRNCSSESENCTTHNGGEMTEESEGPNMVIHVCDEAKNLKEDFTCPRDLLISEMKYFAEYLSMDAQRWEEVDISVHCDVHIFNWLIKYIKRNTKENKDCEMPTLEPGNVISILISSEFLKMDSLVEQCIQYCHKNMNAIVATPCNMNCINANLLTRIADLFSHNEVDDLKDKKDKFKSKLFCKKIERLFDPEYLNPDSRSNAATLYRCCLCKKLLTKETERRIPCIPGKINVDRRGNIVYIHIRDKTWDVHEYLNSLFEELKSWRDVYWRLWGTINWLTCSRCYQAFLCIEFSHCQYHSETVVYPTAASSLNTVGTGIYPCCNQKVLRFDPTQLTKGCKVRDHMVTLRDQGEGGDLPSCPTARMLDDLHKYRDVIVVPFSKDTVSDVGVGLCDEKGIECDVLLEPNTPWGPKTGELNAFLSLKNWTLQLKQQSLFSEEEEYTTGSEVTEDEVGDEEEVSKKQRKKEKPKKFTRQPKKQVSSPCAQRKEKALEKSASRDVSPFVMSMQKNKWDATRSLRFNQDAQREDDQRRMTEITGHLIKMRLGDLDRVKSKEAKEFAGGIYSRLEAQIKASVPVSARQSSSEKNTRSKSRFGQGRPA

Target	log2 fold change
UniProt Q63HQ0 (peptide sequence: LRLEEEALYAAQR, peptide start residue: 102)	-0.0951
SMARCD3 (peptide sequence: KLDQTIMR, peptide start residue: 156) (UniProt Q6STE5)	0.101
C16orf87 (peptide sequence: SPPSTENKHEAK, peptide start residue: 50) (UniProt Q6PH81)	0.285
UniProt Q6GMV3 (peptide sequence: EEVGQYLK, peptide start residue: 127)	-0.256
LLGL2 (peptide sequence: LVAFGTSHGFGLFDHQQR, peptide start residue: 602) (UniProt Q6P1M3)	-0.715
UniProt Q6PFW1 (peptide sequence: HRDELLFVPAVKR, peptide start residue: 1059)	0.45
UniProt Q6P2H3 (peptide sequence: EAEFSSAGHSLQDK, peptide start residue: 541)	-0.26
ARMCX5 (peptide sequence: VLSSLVAPFNKNESK, peptide start residue: 474) (UniProt Q6P1M9)	-0.217
UniProt Q6IAA8 (peptide sequence: LLLDPSSPPTK, peptide start residue: 21)	-0.122
DCAF15 (peptide sequence: AHSEPLALCGETAPR, peptide start residue: 357) (UniProt Q66K64)	0.281
UniProt Q6ICL3 (peptide sequence: GDVICYYGNR, peptide start residue: 131)	-0.137
DHRS11 (peptide sequence: YAVTALTEGLR, peptide start residue: 171) (UniProt Q6UWP2)	0.484
FBXO46 (peptide sequence: VAFFVAHQCGGGSR, peptide start residue: 101) (UniProt Q6PJ61)	0.319
NCBP2AS2 (peptide sequence: LLAALLHSPQLVER, peptide start residue: 6) (UniProt Q69YL0)	0.169
UniProt Q6PJ21 (peptide sequence: APVSDPQAATSAHPSSR, peptide start residue: 326)	0.667
ETFRF1 (peptide sequence: ELEALYFLR, peptide start residue: 65) (UniProt Q6IPR1)	-0.106
ANKRD40 (peptide sequence: GEMPVQLTSR, peptide start residue: 77) (UniProt Q6AI12)	-0.233
UniProt Q6P9H4 (peptide sequence: KRPTGSFNFTPAPLK, peptide start residue: 291)	-0.00114
STEAP3 (peptide sequence: EHYSSLCSLSDQLAGK, peptide start residue: 94) (UniProt Q658P3)	1.61

Target	log2 fold change
UniProt Q6EMB2 (peptide sequence: RIPVLVFHADAILTK, peptide start residue: 38)	0.327
GIGYF2 (peptide sequence: WRPHSPDGPR, peptide start residue: 232) (UniProt Q6Y7W6)	0.443
TWF2 (peptide sequence: TEISVESK, peptide start residue: 164) (UniProt Q6IBS0)	-0.0672
UniProt Q6P9G9 (peptide sequence: VVSLIEDLQR, peptide start residue: 101)	0.422
SNRNP48 (peptide sequence: FVCDLTQADR, peptide start residue: 152) (UniProt Q6IEG0)	0.228
ELP2 (peptide sequence: VLSLCGHEDWIR, peptide start residue: 200) (UniProt Q6IA86)	0.392
TMEM205 (peptide sequence: GLGGEVPGSHQGPDPYR, peptide start residue: 125) (UniProt Q6UW68)	-0.0869
ARMC6 (peptide sequence: AFLDNPGILSELCGTLSR, peptide start residue: 285) (UniProt Q6NXE6)	-0.113
TYW3 (peptide sequence: FYNCLQHALER, peptide start residue: 188) (UniProt Q6IPR3)	-0.207
MRM1 (peptide sequence: SEGLSMAQHPGLSSGPEKER, peptide start residue: 330) (UniProt Q6IN84)	0.136
MSL1 (peptide sequence: QAGIGGEPAAAGAGCSPRPK, peptide start residue: 111) (UniProt Q68DK7)	-0.468
UniProt Q6PK81 (peptide sequence: LHTGEKPYECSECGK, peptide start residue: 212)	0.0383
TRMT10B (peptide sequence: LCIDLSMTHYMSK, peptide start residue: 127) (UniProt Q6PF06)	0.77
FAM219B (peptide sequence: DRAPGAAGPPSGQIGNR, peptide start residue: 25) (UniProt Q5XKK7)	-0.124
UniProt Q6NSI8 (peptide sequence: KFTRQPK, peptide start residue: 589)	0.204
ALKBH2 (peptide sequence: YKDGCDHIGEHR, peptide start residue: 161) (UniProt Q6NS38)	0.319
DNAJC24 (peptide sequence: EYDLQRCEDDLR, peptide start residue: 77) (UniProt Q6P3W2)	-0.418
PGM2L1 (peptide sequence: TSGTEPKIK, peptide start residue: 559) (UniProt Q6PCE3)	0.307

An excerpt of these results, bar-delimited:
Target | log2 fold change
SNRNP48 (peptide sequence: FVCDLTQADR, peptide start residue: 152) (UniProt Q6IEG0) | 0.228
TMEM205 (peptide sequence: GLGGEVPGSHQGPDPYR, peptide start residue: 125) (UniProt Q6UW68) | -0.0869

Reference: the supplement of paper PMC12819154, “High-throughput peptide-centric local stability assay extends protein–ligand identification to membrane proteins, tissues and bacteria” (Nature Structural & Molecular Biology, 2025)
